According to patent US5179196A, “Purification of proteins employing CTAP-III fusions” (SRI International, priority 1989, dated 1993):

B1: CTAP-III: naturally occurring polypeptide isolated from human platelets that activates connective tissue cells; fusion partner (protein, UniProt P02775 44-128, looked up)
Connective tissue-activating …: NLAKGKEESLDSDLYAELRCMCIKTTSGIHPKNIQSLEVIGKGTHCNQVEVIATLKDGRKICLDPDAPRIKKIVQKKLAGDESAD
modifications: Connective tissue-activating peptide III
notes: fusion partner

Tested on: E. coli
Assay: Stability study, pulse and chase labeling of proteins expressed in E. coli
Assay type: cell-based

Row | Molecule | half-life (expressed in plasmid pNP6ΔRI/HIR (or pNP6-CRM/HIR), not as a fusion protein, FIG. 8) | half-life in E. coli (in E. coli) | half-life (in words) (expressed in E. coli)
1 | HV-1: hirudin variant 1, thrombin inhibitor of Hirudo medicinalis, produced from a synthetic DNA | approximately 10 min | approximately 10 minutes | –
2 | B1 | – | – | so long that it cannot be accurately measured
